The results in this text go back to publication PMC7972245.

No constants are given. Whether binding was seen depends on the method and setting. Binding seen in cells or lysates may run through a third protein. Some entries that bind do so weakly or less than the wild type.

The assay has as its target HNRNPK (human (endogenous in BGC823 and SGC7901)) (UniProt P61978). Nature of the assay: co-IP; BGC823 and SGC7901 lysates precleared with Protein A/G PLUS-Agarose, immunoprecipitated for HNRNPK (control IgG); Western blot for β-catenin; also after circFAM73A overexpression (interaction promoted) or knockdown (interaction weakened). Background: In western blotting, separated proteins are transferred to a membrane and probed.

With β-catenin (from UniProt P35222 1-781), the binding result is reported as “binds”.
